Results as given in PubChem BioAssay AID1347076 (National Center for Advancing Translational Sciences (NCATS), 2019).
The campaign covered roughly 400,000 compounds. About 13,000 (3.2%) were called active. Inconclusive means that the source gave no clear call. Such entries were picked first, then a sample of the others. Calls follow the shape of the dose curve; as a rule, active = well fitted cell-killing curve with a large enough effect; inconclusive = small, poorly fitted or top-dose-only effect, or effect the other way; inactive = flat fitted curve, though single readings scatter. Where the call is inconclusive, the potency comes from a doubtful curve fit.

Test: qHTS assay for MDR1-selective chemotherapeutics: Primary screen using the drug-selected MDR subline cells KB-V1; also: nearly all actives have a fitted effect of over 60% in size
Conditions: KB-V1 MDR cells viability, CellTiter-Glo, 72 h; activity change, negative = cytotoxicity: at 46.1 µM (top of the series)
Outline: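 Cells of the MDR subline KB-V1 are plated, dosed with compound at multiple concentrations, and incubated 72 h at 37 degrees C; CellTiter-Glo is then added and luminescence read after 10 min.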
% is scaled to controls: 0 for no effect and ±100 for the full control effect; potency is read from the fitted curve at half-maximal effect.

SMILES	Potency	activity change, negative = cytotoxicity
CCOC(=O)C1CCN(C(=O)Cn2ncc3c4ccccc4n(Cc4ccccc4F)c3c2=O)CC1	inconclusive: 18.4 µM [rising, partial curve, poor fit]	
CCc1c(-c2ccc(Br)cc2)ncn1Cc1cccc(-c2ccccc2)c1	inconclusive: 20.6 µM [cytotoxic, partial curve]	
CCc1nc2ccc(C(=O)N3CCN(c4ccccc4)CC3)cn2c1N(CCC(C)C)CCN(C)C	inconclusive: 14.6 µM [cytotoxic, partial curve, poor fit]	
CCN(C(=O)c1cccn(Cc2ccccc2C)c1=O)c1ccccc1	inconclusive: 29.1 µM [cytotoxic, single point]	
Cc1ccc(COC(=O)c2nn(C)c(=O)c3ccccc23)cc1	inconclusive: 9.2 µM [cytotoxic, partial curve]	
C=CCn1c(=O)c2ccccc2n2c(SCC(=O)Nc3sc(C)c(CC)c3C(=O)OCC)nnc12	inconclusive: 0.184 µM [cytotoxic, full curve]	
CC1(c2ccccc2)NC(=O)N(CC(=O)NNC(=O)c2ccccc2)C1=O (centres undefined)	inconclusive: 29.1 µM [rising, single point]	
CCC(C)Oc1ccccc1C1CC(=O)NC2=C1C(=O)CCC2 (centres undefined)	inconclusive: 29.1 µM [cytotoxic, single point]	
O=C(COC(=O)c1cnccn1)N=c1sccn1Cc1ccccc1Cl	inactive	
COc1ccc(S(=O)(=O)N2CCC(C(=O)N[C@H](C(=O)NCc3ccco3)C(C)C)CC2)cc1	inconclusive: 13 µM [rising, partial curve, poor fit]	
O=C(Cn1c(-c2cccs2)cc2cc(F)ccc21)NCCCN1CCN(c2ccccc2F)CC1	inactive	
CC(=O)CSc1nc2ccc(Nc3nc(N4CCOCC4)nc(N4CCOCC4)n3)cc2s1	inconclusive: 25.9 µM [cytotoxic, single point]	
CC(C)(C)NC(=O)CSc1ncccc1-c1nc2ccccc2[nH]1	inconclusive: 0.0082 µM [cytotoxic, full curve]	
Cc1cccc(N2CCN(CCCNC(=O)c3sc4ncccc4c3-n3cccc3)CC2C)c1 (centres undefined)	inactive	
CCOC(=O)N1CCN(Cc2nc3cc(NC(=O)c4cccs4)ccc3n2CC)CC1	inconclusive: 29.1 µM [cytotoxic, single point]	
COCCCN1C(=O)C(CC(=O)NCC2CCCCC2)CC(C(=O)N2CCOCC2)=C1C (centres undefined)	inconclusive: 23.1 µM [rising, single point]	
c1ccc(CNc2ncnc3c2cnn3-c2ccccc2)cc1	active: 2.59 µM	
O=[N+]([O-])c1ccccc1CSc1ccccn1		inconclusive: 23.5%
COc1cc(-c2csc(CCn3nc(C)cc3C)n2)cc(OC)c1OC	inconclusive: 25.9 µM [cytotoxic, single point]	
O=C(NN=Cc1ccc2c(c1)CCC2)c1ccccc1O	inactive	
CCN(C[C@H]1N[C@@](C)(C(=O)OC)[C@H]2C(=O)N(Cc3ccccc3)C(=O)[C@@H]12)C(=O)Nc1ccc(Cl)cc1	inactive	
Cc1cccc(OCc2nnc(N)s2)c1C	inconclusive: 29.1 µM [cytotoxic, single point]	
CCc1ccc2[nH]c(=O)c(CN(CCCN3CCOCC3)C(=O)Nc3cccc(Cl)c3)cc2c1	inconclusive: 29.1 µM [cytotoxic, single point]	

SMILES	Potency	activity change, negative = cytotoxicity
CC(NC(=O)c1cccc(S(=O)(=O)N2CCN(Cc3ccccc3)CC2)c1)c1ccc(Br)cc1 (centres undefined)	inconclusive: 3.26 µM [cytotoxic, full curve]	
Cc1cccc(OCC(O)Cn2c(=N)n(Cc3ccccc3)c3ccccc32)c1 (centres undefined)	inconclusive: 18.4 µM [cytotoxic, single point]	
COc1ccc(N2CCN(CC(=O)Nc3c(C)cc(C)cc3C)CC2)cc1	inconclusive: 23.1 µM [cytotoxic, partial curve, poor fit]	
CN(Cc1ccc2c(c1)OCCO2)C(=O)CN1C(=O)NC2(CCCCC2)C1=O	inactive	
O=C(Nc1cccc(-c2nc3ccccc3s2)c1)c1cccs1	inconclusive: 11.6 µM [cytotoxic, partial curve]	
CN(CC(=O)NCC(c1ccccc1)N1CCCC1)S(=O)(=O)c1ccc(Cl)cc1 (centres undefined)	active: 20.6 µM	
COc1cc(C(=O)Oc2cc(N)n(S(=O)(=O)c3ccccc3)n2)cc(OC)c1OC	inconclusive: 16.4 µM [rising, partial curve, poor fit]	
CCc1ccc(NC(=O)CN2CCSc3ccc(S(=O)(=O)N4CCCC4)cc32)cc1	active: 7.31 µM	
Cc1ccc2c(c1)sc[n+]2Cc1ccccc1	inactive	
Cc1cccc(OCc2nnc(SCC(=O)Nc3cccc(C(=O)N4CCOCC4)c3)o2)c1C	inconclusive: 29.1 µM [cytotoxic, single point]	
COc1ccccc1S(=O)(=O)Cc1ccc(C(=O)N2CCN(c3cccc(Cl)c3)CC2)o1	active: 16.4 µM	
COc1ccc(/C=C/C(=O)c2ccc(OC)cc2OC)cc1	inconclusive: 29.1 µM [cytotoxic, single point]	
CCCCN(CC)C(=O)c1ccccc1Oc1ccccc1	inconclusive: 14.6 µM [cytotoxic, partial curve]	
OCC1(Cc2ccccc2)CCN(Cc2cnc(-c3ccc(Cl)cc3)nc2)CC1	inconclusive: 5.8 µM [cytotoxic, partial curve]	
COCCNC(=O)CCc1nnc(C2(c3ccc(Cl)cc3)CCC2)o1	inactive	
CCCN1CCC(=O)N([C@H](CSc2ccccc2)c2ccccc2)CC1	inconclusive: 8.2 µM [cytotoxic, partial curve]	
COc1ccc(N/N=C/c2c(C(=O)O)ccc3ccccc23)cc1	inconclusive: 1.46 µM [cytotoxic, partial curve, poor fit]	
CCNS(=O)(=O)c1ccc(S(=O)(=O)N(Cc2ccccn2)C2CCCCC2)cc1	inconclusive: 29.1 µM [cytotoxic, partial curve, poor fit]	
CCCc1cc(=O)[nH]c(Nc2ccc(Cl)cc2)n1	inconclusive: 4.11 µM [cytotoxic, full curve, poor fit]	
O=C(c1ccc(S(=O)(=O)N2CCCC2)cc1)N1CCCC(C(F)(F)F)C1 (centres undefined)	inconclusive: 20.6 µM [cytotoxic, partial curve]	
Cn1c(=O)c2cc(NC(=S)NC3CCCCC3)ccc2n1Cc1ccc(Cl)cc1	inactive	
NC(=S)N/N=C/c1ccccc1[N+](=O)[O-]	inconclusive: 11.6 µM [cytotoxic, partial curve, poor fit]	
CC(C)(C)c1cc(NC(=O)c2c(F)cccc2Cl)n(-c2ccccc2)n1	inconclusive: 14.6 µM [cytotoxic, partial curve]	

Molecules from the list above with bromine:
SMILES	Potency	activity change, negative = cytotoxicity
CCc1c(-c2ccc(Br)cc2)ncn1Cc1cccc(-c2ccccc2)c1	inconclusive: 20.6 µM [cytotoxic, partial curve]	
CC(NC(=O)c1cccc(S(=O)(=O)N2CCN(Cc3ccccc3)CC2)c1)c1ccc(Br)cc1 (centres undefined)	inconclusive: 3.26 µM [cytotoxic, full curve]	

Carrying on:

SMILES	Potency	activity change, negative = cytotoxicity
CCOc1ccc(S(=O)(=O)c2cn(C)c3ccccc3c2=O)cc1	inactive	
Brc1ccc(CN2CCN(c3ccccn3)CC2)s1	inactive	
Cc1ccc(S(=O)(=O)NCC(=O)NCC(=O)N2CCC(C)CC2)cc1	inconclusive: 29.1 µM [rising, single point]	
Cc1nnc2n(-c3ccccc3)c(=O)c3c4c(sc3n12)CC(C)CC4 (centres undefined)	active: 8.2 µM	
c1nc(SSc2ncc3n[nH]nc3n2)nc2n[nH]nc12	inconclusive: 29.1 µM [rising, single point]	
Cc1cc(C)cc(-n2ccnc2SCC(=O)Nc2ccc(C)cc2C)c1	inactive	
CC(C)(C)NC(=O)C1c2ccccc2OCC(=O)N1CC(F)(F)F (centres undefined)		inconclusive: 0%
COc1cc(CCCN2C(N)=NC[C@@H]2Cc2ccccc2)cc(OC)c1OC	inconclusive: 29.1 µM [rising, single point]	
O=C(COc1coc(CN2CCN(c3ccccc3F)CC2)cc1=O)NC1CCCCC1	inconclusive: 18.4 µM [cytotoxic, single point]	
CCC(=O)c1c[nH]c(C(=O)NCc2ccco2)c1	inconclusive: 3.66 µM [rising, partial curve]	
CC(C)(C)n1ncc(Oc2ccccc2[N+](=O)[O-])c(Cl)c1=O	active: 18.4 µM	
COC(=O)c1cc(Cl)c(NC(=O)Cc2ccccc2)cc1OC	inconclusive: 8.2 µM [cytotoxic, partial curve]	
O=C(c1cccs1)N1CCN(C(=O)c2cccs2)C1=S	active: 2.91 µM	
O=C(CN1c2cccc3cccc(c23)S1(=O)=O)NCCc1ccc(F)cc1	inactive	
CCOc1ccc(Cn2nnc(-c3ccc(S(C)(=O)=O)cc3)n2)cc1OCC	inactive	
Cc1nn(-c2ccccc2)c(N)c1Sc1ccccc1[N+](=O)[O-]	inconclusive: 16.4 µM [cytotoxic, partial curve]	
Cc1nn2c(C(F)(F)F)c3c(nc2c1-c1ccccc1)CCC3	inconclusive: 29.1 µM [cytotoxic, single point]	
O=C(NCCc1ccc(Cl)cc1)C1CCN(C(=O)c2ccc(F)cc2)CC1	inconclusive: 14.6 µM [cytotoxic, partial curve, poor fit]	
Cc1ccc(C(=O)Nc2ccccc2N2CCCCC2)cc1S(=O)(=O)N1CCOCC1	inconclusive: 29.1 µM [cytotoxic, single point]	
CCCCCC(=O)Nc1cc(S(=O)(=O)O)cc2cc(S(=O)(=O)O)cc(O)c12	inconclusive: 16.4 µM [rising, single point]	
Cc1cccc(-n2c(-c3csc4ccccc34)n[nH]c2=S)c1	inactive	
COc1ccc(COc2cc(-c3cccc(OC)c3)nc3ccc(NC(=O)c4ccc(C)cc4)cc23)cc1	inactive	
COc1cc(NC(=O)CNC(=O)Cn2ccc3ccccc3c2=O)cc(OC)c1OC	inconclusive: 20.6 µM [rising, single point]	

Looked up above:
For Potency, CCC(=O)c1c[nH]c(C(=O)NCc2ccco2)c1 is listed with inconclusive: 3.66 µM [rising, partial curve]
For Potency, CCCCCC(=O)Nc1cc(S(=O)(=O)O)cc2cc(S(=O)(=O)O)cc(O)c12 is listed with inconclusive: 16.4 µM [rising, single point]
For Potency, COC(=O)c1cc(Cl)c(NC(=O)Cc2ccccc2)cc1OC is listed with inconclusive: 8.2 µM [cytotoxic, partial curve]
